Reference: US12570697B2, “Cyclic peptide useful in the treatment of cancer” (Syntherix Limited, priority 2019, dated 2026)

Assay: imaging of peptide distribution within the cell (Example 1, FIG. 4)
Format: cell-based

Row | Substance | distribution of DAC-peptide within the cell (6 μM in the absence of Nanocin-Pro or 3 μM in the presence of Nanocin-Pro) | location of auto-fluorescent signal (above concentrations of 10 μM, data not shown)
1 | Cys-[Pro-Arg-Gly-Pro-Arg-Pro-DAC-Trp-Trp-Arg-Arg-Trp-Tp-Arg-Arg-Trp-Trp] [HILRa-025-Dac] | throughout the nucleus and cytoplasm | –
2 | HILRa-025: a cyclic peptide composed of a ‘warhead’ and ‘backbone’ as described in WO/2016/020437 (PRGPRPVWWRRWWRR; cyclic; Hilra-025 Synthesized) | – | predominantly located in the nucleus
